PubChem BioAssay AID1259424 – University of Nebraska Medical Center – 2018
Assay: 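Rank knockdowns across the genome by resemblance to the KSR1 depletion profile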 (primary screen). System: human HCT116 colon cancer cells. Reagent: siRNA pool against human genes, 50 nM. Read-out: 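Log2 levels of six mRNAs (branched-DNA multiplex), adjusted by two reference genes and the non-targeting median, then scored against the average KSR1 knockdown pattern as Pearson r and euclidean distance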. Reading the numbers: mean correlation with KSR1 profile and KSR1 correlation: higher = expression change more like KSR1 knockdown; mean distance from KSR1 profile: higher = expression change less like KSR1 knockdown.
In all, the deposit lists about 14,000 reagents; this is a random part of them. 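Higher correlation or smaller distance means closer resemblance to KSR1 loss; control wells, including KSR1 knockdowns, recur on many plates.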 Some reagents were tested in more than one well and are listed for each. Further read-outs or replicates are left out here. No sequences are given here. The record does not give: the time to read-out.

target gene	mean correlation with KSR1 profile	mean distance from KSR1 profile	KSR1 correlation, replicate 1
AUNIP	-0.5	1.92	-0.688
ZFR	-0.82	1.84	-0.626
MTFP1	-0.323	1.52	-0.327
EP400	-0.142	5.86	-0.0805
PABPC1	-0.504	4.36	-0.45
PWP2	-0.323	2.96	-0.254
CBLB	0.032	2.26	0.158
DCAF4	0.349	2.12	0.654
SPG7	-0.251	1.82	-0.166
SPG7	-0.478	2.63	-0.479
SPG7	0.321	1.15	0.103
SOX2	0.377	2.94	0.317
UBAP2	-0.113	1.32	-0.187
RNF25	-0.436	2.26	-0.39
ADGRB3	0.248	1.75	0.271
STARD3NL	0.416	1.46	-0.102
TUBA8	-0.41	1.88	-0.369
TXNRD1	-0.341	1.51	-0.488
CD163	-0.743	2.61	-0.786
TENM4	-0.615	2.04	-0.352
DNALI1	-0.132	1.64	-0.13
SMARCC2	0.721	1.08	0.703

Limited to “KSR1 correlation, replicate 1” (5 entries from above):
EP400	-0.0805
PABPC1	-0.45
PWP2	-0.254
CBLB	0.158
DCAF4	0.654

Additional records:
target gene	mean correlation with KSR1 profile	mean distance from KSR1 profile	KSR1 correlation, replicate 1
TBL1X	0.71	2.33	0.688
MGST3	-0.704	3.04	-0.411
NDUFB7	-0.345	5.73	-0.156
CLPB	0.756	1.88	0.534
KRT35	0.394	0.99	0.764
CEP170	0.329	1.1	0.558
RHCG	-0.253	2.06	-0.0637
SRMS	0.579	1.8	0.867
MCM3AP	0.669	1.8	0.771
ANKHD1	0.454	2.45	0.349
GATA4	-0.395	3.18	-0.391
RASL12	0.0738	2.87	-0.051
MYO6	-0.335	1.88	-0.174
SPAG4	0.18	1.41	0.386
FIZ1	0.202	3.55	0.289
ZCCHC7	0.757	1.1	0.709
PRKAR1B	-0.345	1.7	-0.136
TIMM8A	-0.261	1.52	-0.171
HECA	-0.32	1.79	-0.172
EEF1A2	0.711	1.44	0.961
NR4A1	-0.244	3.41	-0.211
SLC35F5	-0.667	2.66	-0.789
ITGB5	0.432	0.894	0.0552
ZNF79	-0.422	2.41	-0.468
HOXB13	0.722	1.14	0.55
H1-4	-0.0298	2.1	0.0863
ADGRA1	0.247	2.11	0.0269
SEPHS2	0.408	2.29	0.557
GLP2R	0.762	1.65	0.702
GEMIN8	-0.627	2.25	-0.657
CUX2	-0.547	2.4	-0.314
BUD31	0.144	1.16	0.148
NPAS1	-0.212	1.74	-0.14
UBXN7	-0.0766	2.05	-0.18
CENPE	-0.235	2.65	-0.413
LENEP	-0.148	3.82	-0.0166
C6orf15	-0.501	2.13	-0.76
PYGM	-0.0723	1.35	0.0291
INPP4A	-0.461	3.58	-0.463
GSTM5	-0.432	2.48	-0.636
CEP97	0.239	1.63	0.515
